# Reference: paper PMC8213124
# No constants are given. Whether binding was seen depends on the method and setting. Some binding calls cover weakened binding; strength is not graded here.
# T1: CCL21 (human), O00585
# T1 chain: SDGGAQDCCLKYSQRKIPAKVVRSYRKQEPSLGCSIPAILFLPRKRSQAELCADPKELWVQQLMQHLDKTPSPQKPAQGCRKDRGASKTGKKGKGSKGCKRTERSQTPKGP
# T2: CCL3 (human), P10147
# T2 chain: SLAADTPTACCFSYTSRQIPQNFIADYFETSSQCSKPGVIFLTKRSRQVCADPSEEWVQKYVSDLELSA
# B1: CCL21, O00585 24-134 (protein)
# chain: T1 chain
# B2: CCL3, P10147 24-92 (protein)
# chain: T2 chain
# Assays:
# CCL21 (human), O00585 = molecular target: T1, CCL21 (human), O00585; assay: cross-linking; 50 ng chemokine in 20 mM HEPES, 30 min at room temperature without or with phospholipid (brain PE, PC, PS or heart CL; 1:8 chemokine:total lipid molar ratio), then 0.25 mM BS3 for 30 min; SDS-PAGE and immunoblot with anti-chemokine antibodies; both purified; details: remark: other sources report otherwise
# CCL3 (human), P10147 = molecular target: T2, CCL3 (human), P10147; assay: as above; details: remark: other sources report otherwise
binder,measurement,setting,value
B1,binding,"CCL21 (human), O00585",binds
B2,binding,"CCL3 (human), P10147",binds
